Out of some 53,000 sequences screened, about 3,700 (7%) were called active.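 The calls were made as follows: active = gene knockdowns whose robust z-score for IL-1 alpha signal is at least 2 or at most -2, so actives lie on both sides; inactive = the rest.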 This is one part of the list.
assay: Components of the Cytosolic LPS Sensing Pathway: Gene Identification via Genome-wide siRNA Screen; settings: RAW264.7 macrophages, IL-1a HTRF, actives lie on both sides, screened at 100 nM (by protocol), cells primed 5 h with Pam3CSK4 first;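 also: robust z of the log signal after scaling to non-targeting control siRNA wells of the plate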
In short: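 Cells (RAW264.7, 1×10^4 per well) were transfected with siRNA at 100 nM and cultured 48h at 37 degrees C. Pam3CSK4 was added for 5 hours; LipidA transfection followed for 24 hour. IL-1a was then measured by HTRF.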

| Sequence | z-score |
| --- | --- |
| CCAUGGAAUCUCCUAUACCTT against C4bp | inactive: -0.679 |
| GGACUCCCUGGAUUUCAGATT against Rapgef3 | inactive: -1.34 |
| GGACCCUGAACAGACAACGTT against Get3 | inactive: -0.164 |
| GCAUGCUGACACUUACUUUTT against Olfr878 | inactive: -0.872 |
| GGACUUUCUCAAGGACAGATT against Wnt5a | inactive: -0.399 |
| GGUGUGCUAGAAGAUAUUATT against Actr10 | inactive: -0.488 |
| GGCAAAGCUUAUGGAAAGCTT against 9130221H12Rik | inactive: 0.554 |
| GCUGAGCUCAGAACAUCUATT against Muc5b | inactive: 0.357 |
| CCAGAAGCCAUUAACUAUGTT against Lck | inactive: -0.479 |
| CGUGGGUAGAUCCACAUUUTT against Tnip3 | inactive: 1.59 |
| GGUGGAUUUCUAUGUUCAATT against Fblim1 | inactive: 0.391 |
| GGUCCUGCGCUUAUUUGAGTT against Pah | inactive: 1.05 |
| CGAUUCCUUUGUAACGAAATT against Aldh5a1 | inactive: 1.04 |
| GGAUGACAUGAGCAUCAGUTT against Fdft1 | inactive: -0.366 |
| GCCAAAAGUCUCAGACUGATT against Hscb | inactive: -0.976 |
| GGAAUUCUGCUUCAUGGAUTT against Cdc42ep4 | inactive: 0.209 |
| GGAAAAGUUGAUUUCUCUATT against Olfr453 | inactive: 0.437 |
| GAGUACCAGCUGUUGUUCATT against Olfr392 | active: 4.22 |
| CCAAGCCAAGCAAUCUUGATT against Chat | inactive: -0.247 |
| GGAGCUAAUAAUGGUCAAATT against Prrt3 | inactive: 0.92 |
| CCCUAAGUUCUCGUUUCUGTT against Cherp | inactive: 0.765 |
| GGAAUUCGGGAAAUUGGUCTT against Aasdh | inactive: 0.33 |
| GGACCUACGUGUAUGUGCUTT against Nudt3 | inactive: -0.673 |

Part of the list above in a different format:
Sequence | z-score
GGACUCCCUGGAUUUCAGATT against Rapgef3 | inactive: -1.34
GGACUUUCUCAAGGACAGATT against Wnt5a | inactive: -0.399
GGUGUGCUAGAAGAUAUUATT against Actr10 | inactive: -0.488
GGCAAAGCUUAUGGAAAGCTT against 9130221H12Rik | inactive: 0.554
GCUGAGCUCAGAACAUCUATT against Muc5b | inactive: 0.357
CCAGAAGCCAUUAACUAUGTT against Lck | inactive: -0.479
CGUGGGUAGAUCCACAUUUTT against Tnip3 | inactive: 1.59
CGAUUCCUUUGUAACGAAATT against Aldh5a1 | inactive: 1.04
GGAUGACAUGAGCAUCAGUTT against Fdft1 | inactive: -0.366
GGAAAAGUUGAUUUCUCUATT against Olfr453 | inactive: 0.437
GAGUACCAGCUGUUGUUCATT against Olfr392 | active: 4.22
CCAAGCCAAGCAAUCUUGATT against Chat | inactive: -0.247
GGAAUUCGGGAAAUUGGUCTT against Aasdh | inactive: 0.33
GGACCUACGUGUAUGUGCUTT against Nudt3 | inactive: -0.673

Continued:

| Sequence | z-score |
| --- | --- |
| GCUAUGUGGACGUGACCUATT against Chrnb4 | inactive: -0.739 |
| GGAUGACUAUUUCAGAAACTT against Spock1 | inactive: -0.605 |
| GAGAGCGGAGAGAUCAAAGTT against Iltifb | inactive: 0.108 |
| GGGCUUCAUCAACUAUCUUTT against Spint1 | inactive: 1.03 |
| CGGCUUACCAGUCCUGUUUTT against Adgra2 | inactive: 0.609 |
| GGACCAAGAUUGGUUUCAGTT against Fbxo45 | inactive: 0.118 |
| GGUGCUUCCAGAAUCUUUATT against Epha5 | inactive: 0.517 |
| CCUGGUGAUUAGUACUUUATT against Grpel1 | inactive: 1.51 |
| GGAUUUGUUUUCACCAAGATT against Dmd | inactive: 0.3 |
| GGUGAUGCCUGUGAAGACATT against Il3ra | active: 2.04 |
| GGCUAGAAGAUAAAGAUGATT against Tmpo | inactive: 0.535 |
| GGUUAAAGAAGCCAUGAAATT against Olfr480 | inactive: -0.883 |
| GCGUGUUGUGAUGUCACCUTT against Cisd1 | inactive: -0.0193 |
| CCCUUAGUGAACUUCUGUUTT against Tubb2a | inactive: 0.697 |
| GCUUAUCAGGAAAUACAGGTT against Fam168b | inactive: 0.527 |
| GCAUGGUAUUAGGUUUUUUTT against Rab10 | inactive: 1.61 |
| GGAUCAGAAAUCAUCAAGCTT against Tsg-5 | inactive: -1.92 |
| GGGACUUAAGGUUAGACACTT against E330018D03Rik | inactive: 0.163 |
| GGAUGAAAGGCGGAUACUUTT against Etv4 | inactive: 0.4 |
| GGUUUUUCUCUUGUGAUUUTT against Vegfc | inactive: -0.677 |
| GCAGUCUUUCUAAACAUAUTT against Bend7 | inactive: -0.449 |
| CGUUUGCACUACUCGUAACTT against Nrbf2 | inactive: 0.0013 |
| GGCCUUUACGUCUUCCUAGTT against Zdhhc12 | inactive: -1.19 |

| Sequence | z-score |
| --- | --- |
| CCCUCUGCUCUAUGUGGUCTT against Olfr1040 | inactive: -0.195 |
| GCACUGACACUGUUUAUCGTT against Sync | inactive: -1.63 |
| GGAUUCAGAAAUCUGGAAATT against Nmnat3 | inactive: -0.199 |
| GGACUUGCAUACCUUGAUCTT against Dcn | inactive: 0.809 |
| GGAACAUGUCUCCUGAUCUTT against Add3 | inactive: -1.07 |
| GGGAUGAAUACACUUGUUGTT against Cox5a | inactive: -0.206 |
| GGUCUCAUUAUGACAGUGATT against Orc2 | inactive: 0.209 |
| GGCAUCUAUAUCAUCAAAUTT against Pde6a | inactive: 0.54 |
| GGCCAAUCAGAUAACUAAATT against Cep57 | inactive: 0.542 |
| GCUCCAGACGAUGGUUGAATT against Ppp1r1a | inactive: 0.106 |
| GGAAUGGAAAUUCAGAGAGTT against Igfn1 | inactive: -0.394 |
| GGUAACUGGUGUCAUUUAATT against Zfp474 | inactive: 0.619 |
| GGCUUGGUGACAGGACUAUTT against Spidr | inactive: 0.803 |
| GGUUUUCCAUCUCCUCCAGTT against Klrc1 | inactive: 0.789 |
| GGAAACUGUCACAGAUUUUTT against Rgl3 | inactive: -0.133 |
| GGAUGCAGUAGAAAUGCUGTT against Ank | inactive: 0.314 |
| GCUCUCGAGAGCCAAAGAATT against Bach2os | inactive: 0.961 |
| GGGAUGACUCGAGAUGAUGTT against Hax1 | inactive: 0.188 |
| GGAUCAUGUGUGAAAUCCUTT against Hars2 | inactive: 0.981 |
| GGAAGACCAUUGUUGUUAATT against Has2 | inactive: -0.0614 |
| CCACAGUUUGACCUAAUAGTT against Srgn | inactive: -0.381 |
| GGCUAUUCUCAAGGUGUUATT against Olfr568 | inactive: -0.593 |
